According to PubChem BioAssay AID2551 (National Center for Advancing Translational Sciences (NCATS), 2010):
The whole screen tested about 310,000 compounds, of which about 17,000 (5.5%) were called active. The shares of active, inactive and inconclusive entries below differ from those in the screen. Calls come from the whole dose curve; as a rule, active = well fitted inhibition curve with a large enough effect; inconclusive = small, poorly fitted or top-dose-only effect, or effect the other way; inactive = no such curve, though single readings can be large or run the other way. A potency beside an inconclusive call is a rough fit, not a confirmed value.

Protein sequences, listed by entry. Tags and fused reporters are not part of them. Lines headed by an entry give the natural chain unless they say otherwise; changes in a name come on top.
UniProt P51450: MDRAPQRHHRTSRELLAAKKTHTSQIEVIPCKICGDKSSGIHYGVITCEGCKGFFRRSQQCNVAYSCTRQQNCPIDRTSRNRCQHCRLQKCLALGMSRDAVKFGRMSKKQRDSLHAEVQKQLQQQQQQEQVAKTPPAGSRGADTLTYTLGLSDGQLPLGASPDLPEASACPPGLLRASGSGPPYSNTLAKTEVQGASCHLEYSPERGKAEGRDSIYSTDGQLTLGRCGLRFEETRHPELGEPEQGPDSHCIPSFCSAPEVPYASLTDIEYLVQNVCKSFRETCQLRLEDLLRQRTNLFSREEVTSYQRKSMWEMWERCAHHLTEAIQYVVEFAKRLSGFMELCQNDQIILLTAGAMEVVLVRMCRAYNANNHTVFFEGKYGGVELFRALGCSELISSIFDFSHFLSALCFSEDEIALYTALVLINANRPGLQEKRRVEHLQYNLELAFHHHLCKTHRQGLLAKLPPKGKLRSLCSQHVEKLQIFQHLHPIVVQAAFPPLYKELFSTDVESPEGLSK

Target: Nuclear receptor ROR-gamma (Mus musculus) (UniProt P51450)
Test: qHTS for inhibitors of ROR gamma transcriptional activity; note: nearly all actives have a fitted effect of over 60% in size
Conditions: Drosophila S2 Gal4-RORgamma UAS-luciferase reporter, 20 h; activity change, negative = inhibition: at 53.6 µM (top of the series)
Summary of the method: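 Luciferase reporter read in Schneider cells carrying Gal4-RORγ (mouse) and UAS-Photinus luciferase; cells given compound 1 h before 700 uM copper sulfate induction, then incubated 20 h at ambient temperature.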
% is set by controls: 0 for no effect and ±100 for the full control effect; potency is the fitted concentration of half-maximal effect.

Q: Which Potency does the source give for Cc1ccc(S(=O)(=O)N2CCOCC2)cc1C(=O)NC(=S)N(Cc1ccccc1)C(C)C here?
A: active: 1.26 µM

Q: Which “activity change, negative = inhibition” value does the source give for Cc1n[nH]c(C)c1C(=O)CC1(O)C(=O)N(CCc2ccccc2)c2ccc(Cl)cc21 (stereo not drawn) here?
A: inactive: -7.16%

Q: How did the “activity change, negative = inhibition” value turn out when CCc1ccc2nc(Nc3ccc(OC)cc3OC)c(C#N)cc2c1 was run?
A: inactive: -0.276%

Q: With c1ccc(NC2=Nc3cccc4cccc2c34)cc1 as the compound, how does the Potency read?
A: inconclusive: 15.8 µM [inhibitor, partial curve, poor fit]

Q: With CCn1cc(Cl)c(C(=O)N2N=C(c3ccc4ccccc4c3)CC2c2ccccc2O)n1 (stereo not drawn) as the compound, how does the Potency read?
A: inconclusive: 31.6 µM [inhibitor, single point]

Q: CNC(=S)N/N=C(\C)c1ccc2c(c1)OCCO2 was tested. Which Potency did it give?
A: active: 2.82 µM

Q: Which Potency does the source give for Cc1cccc(-n2cc(CN(C)Cc3nccn3C)c(-c3cccc(F)c3)n2)c1 here?
A: active: 5.62 µM

Q: CCC(=O)Nc1c2c(nn1-c1ccccc1C)CSC2 was tested. Which “activity change, negative = inhibition” value did it give?
A: inactive: 21.4%

Q: For N#Cc1cc(C(=O)c2ccccc2OCC(=O)Nc2ccccc2Cl)cn(C2CCCCC2)c1=O, which Potency is on record?
A: inconclusive: 11.2 µM [activator, partial curve]

Q: How did the Potency turn out when Cc1ccoc1C(=O)Nc1ccc2ccccc2c1 was run?
A: inconclusive: 17.8 µM [inhibitor, single point]

Q: Which “activity change, negative = inhibition” value does the source give for CC(=O)c1ccc(NC(=O)C(Cc2ccccc2)n2cccc2)cc1 (stereo not drawn) here?
A: inactive: 14.6%

Q: Which Potency does the source give for N#C/C(=C/c1ccc(Sc2nc3ccccc3[nH]2)o1)c1cccc(Br)c1 here?
A: inconclusive: 35.5 µM [inhibitor, single point]

Q: For c1ccc(OCc2nc(-c3cccs3)no2)cc1, which Potency is on record?
A: inconclusive: 7.08 µM [activator, partial curve]

Q: How did the Potency turn out when O=C1c2cccc(OCC(=O)N3CCCc4ccccc43)c2CCN1Cc1ccc(Br)cc1 was run?
A: inconclusive: 10 µM [activator, partial curve]

Q: How did the Potency turn out when N#Cc1c(-c2cccnc2)c2c([nH]c1=S)CCCC2 was run?
A: active: 11.2 µM

Q: With CCOC(=O)N1CCN(C(=O)C2CCN(CC3CCCCC3)CC2)CC1 as the compound, how does the “activity change, negative = inhibition” value read?
A: inactive: -7.44%

Q: Cc1cc(C(=O)NC2=NCCS2)cs1 was tested. Which Potency did it give?
A: active: 11.2 µM

Q: Which Potency does the source give for CCc1c(C)sc(NC(=O)CSc2nc3c(c(C(F)(F)F)n2)CCc2ccccc2-3)c1C#N here?
A: inconclusive: 0.251 µM [activator, full curve, poor fit]

Q: With Cc1c(C(=O)OC2CCCCC2)[nH]c2c1C(=O)CC(C)(C)C2 as the compound, how does the Potency read?
A: inconclusive: 17.8 µM [activator, single point]

Q: How did the Potency turn out when CC(=O)Oc1oc(-c2ccccc2)nc1C=Nc1ccccc1 was run?
A: inconclusive: 17.8 µM [activator, single point]

Q: Which Potency does the source give for S=C(NCc1ccco1)NCc1ccccc1Cl here?
A: inconclusive: 35.5 µM [inhibitor, single point]

Q: Which Potency does the source give for COc1ccccc1NCC(=O)N/N=C/c1sccc1C here?
A: inconclusive: 7.94 µM [inhibitor, partial curve]

Q: With O=C(O)Cn1nnnc1SCC(=O)Nc1ccccc1F as the compound, how does the “activity change, negative = inhibition” value read?
A: inactive: 20.6%

Q: COc1ccc(NC(=S)NNC(=O)COc2ccc(Cl)cc2Cl)cc1 was tested. Which Potency did it give?
A: inconclusive: 17.8 µM [inhibitor, single point]

Q: COc1ccc(N2C(=O)c3ccc(NC(C)=O)cc3C2=O)cc1 was tested. Which Potency did it give?
A: inconclusive: 0.398 µM [activator, full curve, poor fit]

Q: With C[C@]12CCC3C(CC[C@H]4CCCC[C@]34C)C1CC[C@@]2(O)CNCCO (stereo partly drawn) as the compound, how does the “activity change, negative = inhibition” value read?
A: inactive: 13.5%

Q: O=C(NCc1cccs1)c1noc2c1CCCC2 was tested. Which Potency did it give?
A: inconclusive: 10 µM [activator, partial curve]

Q: CC(=O)Oc1ccc(C(=O)Cc2ccc3ccccc3n2)c(O)c1C was tested. Which Potency did it give?
A: inconclusive: 3.16 µM [inhibitor, full curve]

Q: Which activity change, negative = inhibition does the source give for Nc1ncnc2c1ncn2[C@@H]1O[C@H](COP(=O)(O)OP(=O)(O)OP(=O)(O)O)[C@@H](O)[C@H]1O here?
A: inactive: 12.4% [at 10 µM]

Q: How did the “activity change, negative = inhibition” value turn out when Cc1cccc(NC(=O)c2ccc(Cn3cc(C(F)(F)F)ccc3=O)cc2)c1 was run?
A: inactive: 34.5%

Q: How did the Potency turn out when Cc1[nH]c2ccccc2c1C(=O)COC(=O)Cn1c(C(F)(F)F)nc2ccccc21 was run?
A: inconclusive: 22.4 µM [activator, single point]

Q: With CC1=C(C(=O)OC2CCCC2)C(c2coc3ccccc3c2=O)C2=C(CC(C)(C)CC2=O)N1 (stereo not drawn) as the compound, how does the “activity change, negative = inhibition” value read?
A: inactive: 6.55%

Q: Which Potency does the source give for Cc1ccc(C(=O)CSc2cc(C)[nH]c(=O)n2)cc1 here?
A: inconclusive: 0.355 µM [activator, full curve, poor fit]

Q: With CN(C)c1ccc(CNC(=O)CN2C(=O)COc3ccc(S(=O)(=O)N4CCCC4)cc32)cc1 as the compound, how does the “activity change, negative = inhibition” value read?
A: inactive: -0.822%

Q: With CCc1ccc(NC(=O)CCn2cccc2)cc1 as the compound, how does the Potency read?
A: inconclusive: 7.08 µM [activator, partial curve]

Q: O=C(NCc1ccco1)C1CCN(S(=O)(=O)Cc2ccccc2)CC1 was tested. Which Potency did it give?
A: inconclusive: 2.51 µM [inhibitor, full curve, poor fit]

Q: How did the Potency turn out when COC(=O)c1ccc(NC(=O)CSCc2ccccc2C)cc1 was run?
A: inconclusive: 12.6 µM [activator, single point]

Q: With C#CCN(CC=C)C(=O)c1ccc2nc(C3CCCCC3)oc2c1 as the compound, how does the Potency read?
A: inconclusive: 12.6 µM [activator, single point]

Q: Which “activity change, negative = inhibition” value does the source give for COc1ccc(/C(O)=C2/C(=O)C(=O)N(CCN3CCOCC3)C2c2ccccn2)cc1OC (stereo not drawn) here?
A: inactive: 6.6%

Q: With Cc1nc(N)sc1N=Nc1ccc(F)cc1 as the compound, how does the Potency read?
A: inconclusive: 35.5 µM [inhibitor, single point]

Q: COC(=O)c1c(C(=O)OC)c2ccccn2c1C(=O)c1ccccc1 was tested. Which Potency did it give?
A: inconclusive: 1.26 µM [activator, single point]

Q: How did the Potency turn out when CCn1c(SCC(=O)Nc2cc(C)on2)nc2sc3c(c2c1=O)CCCC3 was run?
A: inconclusive: 31.6 µM [inhibitor, single point]

Q: OCCCn1c(-c2ccccc2)csc1=Nc1ccccc1 was tested. Which Potency did it give?
A: inconclusive: 14.1 µM [activator, single point]

Q: OCC1(CCOc2ccccc2)CCN(Cc2ccccc2C(F)(F)F)CC1 was tested. Which Potency did it give?
A: inconclusive: 12.6 µM [activator, single point]

Q: Which “activity change, negative = inhibition” value does the source give for CSc1nc(-c2ccccc2)c(-c2ccccc2)[nH]1 here?
A: inactive: 12.3%

Q: With O=C(NN1C(=O)/C(=C\c2cccnc2)SC1=S)C(c1ccccc1)c1ccccc1 as the compound, how does the Potency read?
A: inconclusive: 25.1 µM [inhibitor, single point]

Q: Which Potency does the source give for Nc1nc(-c2ccco2)nn1C(=O)c1cccnc1 here?
A: inconclusive: 0.447 µM [inhibitor, partial curve]

Q: How did the Potency turn out when COc1ccc(C(=O)N/N=C(\C)CC(=O)N2CCN(C=O)CC2)cc1 was run?
A: inconclusive: 35.5 µM [inhibitor, single point]

Q: With CC(=O)/C(=C/c1ccccc1)C(=O)Nc1ccccc1C as the compound, how does the Potency read?
A: inconclusive: 28.2 µM [inhibitor, single point]

Q: How did the Potency turn out when COC(=O)c1ccc(N)c(N=CC2=C(O)CC(C)(C)CC2=O)c1 was run?
A: active: 12.6 µM

Q: Which Potency does the source give for Cc1nn(-c2ccccc2Cl)c(Cl)c1/C=N/Nc1cccc(C(=O)O)c1 here?
A: inconclusive: 35.5 µM [inhibitor, single point]

Q: For CCC(=O)Nc1cccc(C(=O)/C=C/c2ccccc2)c1, which Potency is on record?
A: active: 15.8 µM

Q: For Brc1ccc(CNc2ccc3ncccc3c2)cc1, which Potency is on record?
A: inconclusive: 3.98 µM [activator, single point]

Q: How did the “activity change, negative = inhibition” value turn out when Cc1ccc(-c2nc(C=Nc3ccc(O)cc3)c(O)o2)cc1 was run?
A: inactive: -5.07%

Q: Cc1sc(NC(=O)C2C3CCC(O3)C2C(=O)O)nc1-c1ccc(CC(C)C)cc1 (stereo not drawn) was tested. Which “activity change, negative = inhibition” value did it give?
A: inactive: -30.2%

Q: For COc1cc(/C=N/NC(=S)Nc2cccc(S(=O)(=O)N(C)C)c2)cc(OC)c1O, which Potency is on record?
A: active: 3.16 µM

Q: For COc1ccc(NC(=O)CCC2CCCC2)cc1OC, which Potency is on record?
A: inconclusive: 14.1 µM [activator, partial curve]

Q: For COC(=O)C1=C(C)N(c2cccc3ccccc23)C(=O)C1, which Potency is on record?
A: inconclusive: 35.5 µM [inhibitor, single point]

Q: For CCn1c(SCC(=O)N/N=C/C=C/c2ccco2)nc2ccccc21, which Potency is on record?
A: inconclusive: 31.6 µM [inhibitor, single point]

Q: For COc1cc(-c2nc(-c3ccccc3)c(-c3cccs3)[nH]2)cc(OC)c1OC, which “activity change, negative = inhibition” value is on record?
A: inactive: -20.1%

Q: For COc1ccc(CC(=O)NNC(=S)Nc2ccc(Br)cc2)cc1, which Potency is on record?
A: inconclusive: 5.62 µM [inhibitor, partial curve, poor fit]

Q: Cn1c(=S)n(/N=C/c2cccs2)c2ccccc21 was tested. Which Potency did it give?
A: inconclusive: 11.2 µM [inhibitor, partial curve]

Q: Which Potency does the source give for O=C1C2CC=CCC2C(=O)N1c1ccc(NCCc2ccccc2F)c([N+](=O)[O-])c1 (stereo not drawn) here?
A: inconclusive: 10 µM [activator, partial curve, poor fit]

Q: With Cc1onc(-c2ccccc2)c1C(=O)NNC(=S)NC(=O)/C=C/c1ccccc1 as the compound, how does the Potency read?
A: active: 5.62 µM

Q: How did the Potency turn out when O=C(N/N=C/c1c(O)n(-c2ccccc2Cl)c(=O)c2ccccc12)C1COc2ccccc2O1 (stereo not drawn) was run?
A: active: 3.98 µM

Q: Which “activity change, negative = inhibition” value does the source give for O=C1CC(c2ccc(Cl)cc2)CC(O)=C1C=NCCO (stereo not drawn) here?
A: inactive: 1.15%

Q: CC(SCc1ccc(C(=O)O)o1)c1ccc(C(=O)O)o1 (stereo not drawn) was tested. Which “activity change, negative = inhibition” value did it give?
A: inactive: -18%

Q: For Cc1ccccc1C(=O)NC(=S)Nc1ccccc1[N+](=O)[O-], which Potency is on record?
A: active: 6.31 µM

Q: How did the Potency turn out when COc1ccc(NC(=O)CSc2nc3ccc(Nc4nc(N5CCOCC5)nc(N5CCOCC5)n4)cc3s2)cc1 was run?
A: inconclusive: 35.5 µM [inhibitor, single point]

Q: For c1ccc(Cc2nnc3sc(-c4ccc5c(c4)OCCO5)nn23)cc1, which “activity change, negative = inhibition” value is on record?
A: inactive: 25.1%

Q: How did the Potency turn out when Cc1cccc(C)c1NC(=S)N(Cc1cccnc1)Cc1ccccc1Cl was run?
A: inconclusive: 12.6 µM [inhibitor, single point]

Q: For COc1cccc(-c2ccc(NC(=O)C3CCCN(Cc4cnc(C)s4)C3)cc2)c1 (stereo not drawn), which Potency is on record?
A: inconclusive: 15.8 µM [activator, single point]

Q: For Cc1nc2ccc(S(=O)(=O)NCC(=O)NCc3ccc4c(c3)OCO4)cc2s1, which Potency is on record?
A: inconclusive: 31.6 µM [activator, single point]
